Data taken from the supplement of paper PMC8728848.
The list shows a part of the results.

What was measured:
Assay in all cases: glycan array binding signal (z-score within array); higher = stronger binding
Settings in all cases: glycan notation: IUPAC condensed, linker removed
Fuc(a1-2)Gal = molecular target: Fuc(a1-2)Gal
Summary of the method: (§1)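 Glycan array data were curated from 3228 arrays in the Consortium for Functional Glycomics database and kept only where the protein sequence was available. Glycan names were converted to IUPAC-condensed notation, and columns mapping to the same glycan were averaged. The binding signal is a within-array Z-score, averaged across arrays of the same protein sequence at different concentrations or buffers and across linkers. Negative Z-scores can be read as non-binding.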

Fuc(a1-2)Gal(b1-3)GalNAc = molecular target: Fuc(a1-2)Gal(b1-3)GalNAc
Summary of the method: as §1

[1] = molecular target: Fuc(a1-2)Gal(b1-3)GalNAc(a1-3)[Fuc(a1-2)]Gal(b1-4)Glc
Summary of the method: as §1

[2] = molecular target: Fuc(a1-2)Gal(b1-3)GalNAc(a1-3)[Fuc(a1-2)]Gal(b1-4)GlcNAc
Summary of the method: as §1

[3] = molecular target: Fuc(a1-2)Gal(b1-3)GalNAc(b1-3)Gal
Summary of the method: as §1

[4] = molecular target: Fuc(a1-2)Gal(b1-3)GalNAc(b1-3)Gal(a1-4)Gal(b1-4)Glc
Summary of the method: as §1

[5] = molecular target: Fuc(a1-2)Gal(b1-3)GalNAc(b1-4)[Neu5Ac(a2-3)]Gal(b1-4)Glc
Summary of the method: as §1

Fuc(a1-2)Gal(b1-3)GlcNAc = molecular target: Fuc(a1-2)Gal(b1-3)GlcNAc
Summary of the method: as §1

[6] = molecular target: Fuc(a1-2)Gal(b1-3)GlcNAc(b1-2)Man(a1-3)[Fuc(a1-2)Gal(b1-3)GlcNAc(b1-2)Man(a1-6)]Man(b1-4)GlcNAc(b1-4)GlcNAc
Summary of the method: as §1

[7] = molecular target: Fuc(a1-2)Gal(b1-3)GlcNAc(b1-2)Man(a1-3)[Fuc(a1-2)Gal(b1-3)GlcNAc(b1-2)Man(a1-6)]Man(b1-4)GlcNAc(b1-4)[Fuc(a1-6)]GlcNAc
Summary of the method: as §1

[8] = molecular target: Fuc(a1-2)Gal(b1-3)GlcNAc(b1-3)Gal(b1-4)Glc
Summary of the method: as §1

[9] = molecular target: Fuc(a1-2)Gal(b1-3)GlcNAc(b1-3)GalNAc
Summary of the method: as §1

[10] = molecular target: Fuc(a1-2)Gal(b1-3)GlcNAc(b1-3)[Fuc(a1-2)Gal(b1-3)GlcNAc(b1-6)]GalNAc
Summary of the method: as §1

[11] = molecular target: Fuc(a1-2)Gal(b1-3)GlcNAc(b1-3)[Gal(b1-4)GlcNAc(b1-6)]Gal(b1-4)Glc
Summary of the method: as §1

[12] = molecular target: Fuc(a1-2)Gal(b1-3)GlcNAc(b1-3)[Neu5Ac(a2-6)Gal(b1-4)GlcNAc(b1-6)]Gal(b1-4)Glc
Summary of the method: as §1

[13] = molecular target: Fuc(a1-2)Gal(b1-3)GlcNAc6S
Summary of the method: as §1

[14] = molecular target: Fuc(a1-2)Gal(b1-3)[Fuc(a1-4)]GlcNAc
Summary of the method: as §1

[15] = molecular target: Fuc(a1-2)Gal(b1-3)[Fuc(a1-4)]GlcNAc(b1-2)Man(a1-3)[Fuc(a1-2)Gal(b1-3)[Fuc(a1-4)]GlcNAc(b1-2)Man(a1-3)]Man(b1-4)GlcNAc(b1-4)GlcNAc
Summary of the method: as §1

[16] = molecular target: Fuc(a1-2)Gal(b1-3)[Fuc(a1-4)]GlcNAc(b1-2)Man(a1-3)[Fuc(a1-2)Gal(b1-3)[Fuc(a1-4)]GlcNAc(b1-2)Man(a1-6)]Man(b1-4)GlcNAc(b1-4)[Fuc(a1-6)]GlcNAc(b1-4)[Fuc(a1-6)]GlcNAc
Summary of the method: as §1

[17] = molecular target: Fuc(a1-2)Gal(b1-3)[Fuc(a1-4)]GlcNAc(b1-3)[Fuc(a1-3)[Gal(b1-4)]GlcNAc(b1-6)]Gal(b1-4)Glc
Summary of the method: as §1

[18] = molecular target: Fuc(a1-2)Gal(b1-3)[Fuc(a1-4)]GlcNAc(b1-3)[Gal(b1-4)GlcNAc(b1-6)]Gal(b1-4)Glc
Summary of the method: as §1

Fuc(a1-2)Gal(b1-4)Glc = molecular target: Fuc(a1-2)Gal(b1-4)Glc
Summary of the method: as §1

Fuc(a1-2)Gal(b1-4)Glc6S = molecular target: Fuc(a1-2)Gal(b1-4)Glc6S
Summary of the method: as §1

Fuc(a1-2)Gal(b1-4)GlcNAc = molecular target: Fuc(a1-2)Gal(b1-4)GlcNAc
Summary of the method: as §1

[19] = molecular target: Fuc(a1-2)Gal(b1-4)GlcNAc(b1-2)Man
Summary of the method: as §1

[20] = molecular target: Fuc(a1-2)Gal(b1-4)GlcNAc(b1-2)Man(a1-3)[Fuc(a1-2)Gal(b1-4)GlcNAc(b1-2)Man(a1-6)]Man(b1-4)GlcNAc(b1-4)GlcNAc
Summary of the method: as §1

[21] = molecular target: Fuc(a1-2)Gal(b1-4)GlcNAc(b1-2)Man(a1-3)[Fuc(a1-2)Gal(b1-4)GlcNAc(b1-2)Man(a1-6)]Man(b1-4)GlcNAc(b1-4)[Fuc(a1-6)]GlcNAc
Summary of the method: as §1

[22] = molecular target: Fuc(a1-2)Gal(b1-4)GlcNAc(b1-2)[Fuc(a1-2)Gal(b1-4)GlcNAc(b1-4)]Man(a1-3)[Fuc(a1-2)Gal(b1-4)GlcNAc(b1-2)Man(a1-6)]Man(b1-4)GlcNAc(b1-4)GlcNAc
Summary of the method: as §1

[23] = molecular target: Fuc(a1-2)Gal(b1-4)GlcNAc(b1-3)Gal(b1-4)GlcNAc
Summary of the method: as §1

[24] = molecular target: Fuc(a1-2)Gal(b1-4)GlcNAc(b1-3)Gal(b1-4)GlcNAc(b1-2)Man(a1-3)[Fuc(a1-2)Gal(b1-4)GlcNAc(b1-3)Gal(b1-4)GlcNAc(b1-2)Man(a1-6)]Man(b1-4)GlcNAc(b1-4)GlcNAc
Summary of the method: as §1

B1: Awp3 (Candida glabrata), B4UN32 (protein)
chain: MISFVTLLAILGLLSISWADQTVRSVAGDQRVTDPVIVGDNSILDYYGGSNYDFSNNFEIGRGTLYIGKESYFSSFQSAPTDVPNSFHLLIKNTNNLQNNGQFIIENIKRHANQCSNSSIQVFPINFQNDGEFEIISGGVEGRCCLPTSVIAPQNFLNNGKFYYKVLTDTGSIYSGSCMQNVDIGASTTTTVNNNLWEFTGSINAQINGAVSGAAQINLDGSNMFVNANTFSGQVVNLINGGSFLQTSDPLSNIVVINGLGTSDTGVTSIAVKGKGKSFTYNPSSGIVKLTTVEGKTYAYQIGCGYNTKKFITNNDSGASYESADNFFVLTYSEPYSPQTCQLENSSIFSSNFISTSTSSSSSSSSASSLPSSMSSSLPSSLSSSLSSSLSSSMSSSMSSLFIIPPPYTTTRSSGSSIIDTEIVSFYSTTDSPGHTITGTTTTTLYGPHTHSSVSTPSSSSESSTTSNSSIESSSLPHTSVSSTPESSITPSSNTISSSPTSDFSSVQSSSIMESSSVVASSSVINSSSIVDSSSSSASSLPSSMSSSLSSSMSSSLPSSMSSSLSSSLSSSLSSSMSSSMSSLFIIPPPYTTTRSSGSSIIDTEIVSFYSTTDSPGHTITGTTTTTLYGPHTHSSVSTPSSSSESSTTSNSSIESSSLPHTSVSSTPESSITPSSNTISSSPTSDFSSVQSSSIMESSSVVASSSVINSSSIVDSSSSSASSLPSSMPSSLPSSMSSSLSSSMSSSLSSSLSSSLSSSMSSSMSSLFIIPPPYTTTRSSGSSIIDTEIVSFYSTTDSPGHTITGTTTTTLYGPHTHSSVSTPSSSSESSTTSNSSIESSSLPHTSVSSTPESSITPSSNTISSSPTSDFSSVQSSSIMESSSVVASSSATQSSSVINSSSIVDSSSSSASSLPSSMPSSLPSSLSSSLSSSLSSSMSSSMSSLFIIPPPYTTTRSSGSSIIDTEIVSFYSTTDSPGHTITGTTTTTLYESSIYSSSSSTIQESELSNTSRTTMTSNSSVSISSTSSRSSFSNTKSSTIVISQSASLPDSKTDIILSTSSNIGYSSRSLLSDLGTSISDSDIHHSVLHSTESYSSNESGTNPFTSIASLSNFIPESSSHTSTALGSENSVISSDILTTMSHPVATNSGDKPTTPKRSEQVSTTMTSSGPTPDTSSFDTDGMSAYSRPEFTTNSLEVNKSSTSQLGNNKQTFSNLQLESTRPHSENEVDNNTRLLQSIQQSSTYGTNNVNPLSPTGSISIPLTEDGQGDNNNWNSPATNDLCTQISFNLTATTITVTDRITITDSIHDISSEVITSYIYQTIVDQKTVTQTVDGKSLANKMSSIPKPSSRSLIQPQPPVAIELQEGAASTSRVSLVSLFISIILVLL
Fuc(a1-2)Gal
  glycan array binding signal (z-score): -0.283
Fuc(a1-2)Gal(b1-3)GalNAc
  glycan array binding signal (z-score): 0.014
[1]
  glycan array binding signal (z-score): -0.482
[2]
  glycan array binding signal (z-score): -1.19
[3]
  glycan array binding signal (z-score): -0.409
[4]
  glycan array binding signal (z-score): 2.34
[5]
  glycan array binding signal (z-score): 0.812
Fuc(a1-2)Gal(b1-3)GlcNAc
  glycan array binding signal (z-score): -0.793
[6]
  glycan array binding signal (z-score): -0.957
[7]
  glycan array binding signal (z-score): 1.49
[8]
  glycan array binding signal (z-score): 0.58
[9]
  glycan array binding signal (z-score): 0.005
[10]
  glycan array binding signal (z-score): -0.693
[11]
  glycan array binding signal (z-score): 0.739
[12]
  glycan array binding signal (z-score): -0.792
[13]
  glycan array binding signal (z-score): 0.811
[14]
  glycan array binding signal (z-score): 0.827
[15]
  glycan array binding signal (z-score): -0.701
[16]
  glycan array binding signal (z-score): 0.156
[17]
  glycan array binding signal (z-score): 0.791
[18]
  glycan array binding signal (z-score): -0.557
Fuc(a1-2)Gal(b1-4)Glc
  glycan array binding signal (z-score): 0.484
Fuc(a1-2)Gal(b1-4)Glc6S
  glycan array binding signal (z-score): -0.996
Fuc(a1-2)Gal(b1-4)GlcNAc
  glycan array binding signal (z-score): -0.106
[19]
  glycan array binding signal (z-score): -0.5
[20]
  glycan array binding signal (z-score): -1.06
[21]
  glycan array binding signal (z-score): 0.401
[22]
  glycan array binding signal (z-score): 3.23
[23]
  glycan array binding signal (z-score): -1.23
[24]
  glycan array binding signal (z-score): -1.57
